Results are given in words; binding and its absence hold for the method and conditions named. In cells and extracts the contact can be indirect. Some binding calls cover weakened binding; strength is not graded here. Blank lines part the entries; values can stand above or below the binder they belong to.
Assays:
[1] = target: T1, Asc (mouse (endogenous in mouse cortex and primary microglia)), Q9EPB4; assay: co-IP; anti-Asc coupled to Dynabeads, lysate of primary cortical microglia (WT, Pgam5-/- or Pgam5-shRNA, caspase8-shRNA) stimulated with LPS + ATP, overnight at 4 °C; IgG as negative control; immunoblot; conditions: remark: other sources report otherwise
T1 chain: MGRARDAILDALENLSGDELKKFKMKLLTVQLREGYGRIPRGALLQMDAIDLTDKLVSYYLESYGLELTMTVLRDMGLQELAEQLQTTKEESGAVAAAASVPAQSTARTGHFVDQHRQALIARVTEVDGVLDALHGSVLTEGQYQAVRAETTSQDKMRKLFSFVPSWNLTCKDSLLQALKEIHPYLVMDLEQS

Protein sequences, listed by entry. Tags and fused reporters are not part of them.
UniProt Q8R4B8: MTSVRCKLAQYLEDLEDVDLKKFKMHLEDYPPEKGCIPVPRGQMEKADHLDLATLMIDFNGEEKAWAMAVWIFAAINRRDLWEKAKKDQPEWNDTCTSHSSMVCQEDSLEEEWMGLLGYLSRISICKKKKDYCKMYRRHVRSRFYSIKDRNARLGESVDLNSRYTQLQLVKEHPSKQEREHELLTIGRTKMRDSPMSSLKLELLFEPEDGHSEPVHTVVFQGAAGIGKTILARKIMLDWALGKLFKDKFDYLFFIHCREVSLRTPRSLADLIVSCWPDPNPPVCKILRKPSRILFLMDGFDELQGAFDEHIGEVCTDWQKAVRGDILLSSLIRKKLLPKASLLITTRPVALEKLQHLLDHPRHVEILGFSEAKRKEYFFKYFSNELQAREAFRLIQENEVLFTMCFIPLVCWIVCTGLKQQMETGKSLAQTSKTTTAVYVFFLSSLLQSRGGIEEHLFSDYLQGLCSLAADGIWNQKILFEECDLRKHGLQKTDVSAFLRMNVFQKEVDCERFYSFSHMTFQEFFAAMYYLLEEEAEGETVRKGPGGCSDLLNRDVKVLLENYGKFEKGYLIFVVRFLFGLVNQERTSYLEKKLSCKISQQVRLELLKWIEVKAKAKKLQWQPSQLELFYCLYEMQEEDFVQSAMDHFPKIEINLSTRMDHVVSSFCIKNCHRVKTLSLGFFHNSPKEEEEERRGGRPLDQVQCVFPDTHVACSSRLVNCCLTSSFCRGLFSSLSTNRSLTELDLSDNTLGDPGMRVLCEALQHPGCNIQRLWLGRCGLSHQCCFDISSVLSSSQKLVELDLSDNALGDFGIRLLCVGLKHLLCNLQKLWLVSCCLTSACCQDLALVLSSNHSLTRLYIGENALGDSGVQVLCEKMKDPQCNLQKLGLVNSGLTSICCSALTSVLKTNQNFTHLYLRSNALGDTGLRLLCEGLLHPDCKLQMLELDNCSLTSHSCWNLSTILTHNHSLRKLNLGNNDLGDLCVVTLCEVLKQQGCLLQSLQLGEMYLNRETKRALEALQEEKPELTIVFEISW

[2] = target: Nlrp3 (mouse (endogenous in mouse cortex and primary microglia)) (UniProt Q8R4B8); assay: co-IP; anti-Nlrp3 coupled to Dynabeads, lysate of cortical tissue (Pierce IP lysis buffer) of WT and Pgam5-/- mice, sham or 48 h after TBI, overnight at 4 °C; IgG as negative control; immunoblot
[3] = target: T2, Asc (mouse (endogenous in mouse cortex and primary microglia)) (UniProt Q9EPB4); assay: co-IP; anti-Asc coupled to Dynabeads, lysate of primary cortical microglia (WT, Pgam5-/- or Pgam5-shRNA, caspase8-shRNA) stimulated with LPS + ATP, overnight at 4 °C; IgG as negative control; immunoblot
T2 sequence: T1 chain

[4] = target: Phosphoglycerate mutase 5 (mouse (endogenous in mouse cortex and primary microglia)) (UniProt Q8BX10); assay: cross-linking; detergent-insoluble crude pellet of primary microglia (LPS + ATP) resuspended in CHAPS buffer, 4 mM DSS for 30 min, Western blot for monomers, dimers and oligomers

binding [1]: binds
B1: caspase8, O89110 1-480 (protein)
chain: MDFQSCLYAIAEELGSEDLAALKFLCLDYIPHKKQETIEDAQKLFLRLREKGMLEEGNLSFLKELLFHISRWDLLVNFLDCNREEMVRELRDPDNAQISPYRVMLFKLSEEVSELELRSFKFLLNNEIPKCKLEDDLSLLEIFVEMEKRTMLAENNLETLKSICDQVNKSLLGKIEDYERSSTERRMSLEGREELPPSVLDEMSLKMAELCDSPREQDSESRTSDKVYQMKNKPRGYCLIINNHDFSKAREDITQLRKMKDRKGTDCDKEALSKTFKELHFEIVSYDDCTANEIHEILEGYQSADHKNKDCFICCILSHGDKGVVYGTDGKEASIYDLTSYFTGSKCPSLSGKPKIFFIQACQGSNFQKGVPDEAGFEQQNHTLEVDSSSHKNYIPDEADFLLGMATVKNCVSYRDPVNGTWYIQSLCQSLRERCPQGDDILSILTGVNYDVSNKDDRRNKGKQMPQPTFTLRKKLFFPP

binding [2]: binds | binding [3]: binds
B2: caspase1 (protein, UniProt P29452 1-402)
chain: MADKILRAKRKQFINSVSIGTINGLLDELLEKRVLNQEEMDKIKLANITAMDKARDLCDHVSKKGPQASQIFITYICNEDCYLAGILELQSAPSAETFVATEDSKGGHPSSSETKEEQNKEDGTFPGLTGTLKFCPLEKAQKLWKENPSEIYPIMNTTTRTRLALIICNTEFQHLSPRVGAQVDLREMKLLLEDLGYTVKVKENLTALEMVKEVKEFAACPEHKTSDSTFLVFMSHGIQEGICGTTYSNEVSDILKVDTIFQMMNTLKCPSLKDKPKVIIIQACRGEKQGVVLLKDSVRDSEEDFLTDAIFEDDGIKKAHIEKDFIAFCSSTPDNVSWRHPVRGSLFIESLIKHMKEYAWSCDLEDIFRKVRFSFEQPEFRLQMPTADRVTLTKRFYLFPGH

binding [2]: binds | binding [4]: binds
B3: Phosphoglycerate mutase 5 (protein, UniProt Q8BX10 1-288)
chain: MAFRQALQLAACGLAGGSAAVLFSAVAVGKPRGGGDADTRATEPPAWTGARAGRGVWDTNWDRREPLSLINLKKRNVESGEDELTSRLDHYKAKATRHIFLIRHSQYHVDGSLEKDRTLTPLGREQAELTGLRLASLGLKFNKIVHSSMTRAVETTDIISKHLPGVSRVSTDLLREGAPIEPDPPVSHWKPEAVQYYEDGARIEAAFRNYIHRADARQEEDSYEIFICHANVIRYIVCRALQFPPEGWLRLSLNNGSITHLVIRPNGRVALRTLGDTGFMPPDKITRS

Reference: paper PMC8511105
